From PMC12670160, “A drug-repurposing screen of FDA- and EMA-approved drugs identifies two NF-κB inhibitors active against eumycetoma” (Journal of Antimicrobial Chemotherapy, 2025)
Structures can show the parent of a compound that is named as a salt. Among all 5,300 compounds or so, about 130 (2.5%) showed an effect of 50% or more. The list shows a part of the results. Square brackets hold non-standard residues; d marks the D form. Peptide text beside a SMILES is read from it. pGlu = O=C1CC[C@@H](C(=O)O)N1; Thz = O=C(O)[C@@H]1CSCN1

These molecules were tested on M. mycetomatis strain mm55. Conditions: primary screen, metabolic activity vs growth control; 96 h, 2 µM; inhibitor.

First: CCc1[nH]c(=O)[nH]c1C(=O)c1ccncc1 [ONC0003720, piroximone]
Second: CCC1(c2ccccc2)C(=O)NCNC1=O [ONC0000499, primidone]
The “% viability” value of the first is higher: 96.52% for the first, 68.11% for the second.

First: Nc1nc(NCCNc2ncc(-n3ccnc3)c(-c3ccc(Cl)cc3Cl)n2)ccc1[N+](=O)[O-] [ONC0005257, chir98014]
Second: CCn1c(=O)c(-c2ccc(Cl)cc2Cl)cc2cnc(Nc3ccc(N4CCNCC4)c(F)c3)nc21 [ONC0000042, frax486]
The “% viability” value of the first is higher: 118.6% for the first, 82.48% for the second.

Compared with `O=C(NC1(c2ccccc2)CC1)c1c(CN2CCC(N3CCCCC3)CC2)c(-c2cccc(C(F)(F)F)c2)nc2cc(Br)ccc12` [ONC0003010, gsk2193874], `O=c1[nH]c2ccccc2n1CCN1CCN(c2cccc(C(F)(F)F)c2)CC1` [ONC0005440, flibanserin] is higher in “% viability” value: 85.52% for the first, 115.9% for the second.

Going from `O=C(Nc1c[nH]nc1-c1nc2cc(CN3CCOCC3)ccc2[nH]1)NC1CC1` [ONC0004692, at9283] to `C=CC(=O)Nc1cccc(Oc2nc(Nc3ccc(N4CCN(C)CC4)cc3)ncc2Cl)c1` [ONC0004716, wz3146], the “% viability” value rises from 87.23% to 99.4%.

First: Clc1ccc2c(c1)CCc1cccnc1C2=C1CCNCC1 [ONC0003934, desloratidine]
Second: O=S(=O)(c1cccc2c(O)nccc12)N1CCCNCC1 [ONC0001395, hydroxyfasudil]
The “% viability” value of the first is lower: 77.89% for the first, 104.4% for the second.

First: CCCCC/C=C\C/C=C\CCCCCCCC(=O)NCCCC(=O)O [ONC0003440, linoleoyl gaba]
Second: CCCCc1oc2ccc(NS(C)(=O)=O)cc2c1C(=O)c1ccc(OCCCN(CCCC)CCCC)cc1 [ONC0004606, dronedarone hcl multaq]
The “% viability” value of the first is lower: 70.93% for the first, 82.39% for the second.

First: O=C1NCC2(CCN(CCc3ccccc3)CC2)O1 [ONC0000630, fenspiride hydrochloride]
Second: O=C(NCc1ccc(F)cc1)N1CCN2C(=O)OC(c3ccccc3)(c3ccccc3)C2C1 (centres unmarked) [ONC0000246, sha68]
The “% viability” value of the first is higher: 98.68% for the first, 68.69% for the second.

Going from `CC(C)[C@]12O[C@H]1[C@@H]1O[C@]13[C@]1(O[C@H]1C[C@H]1C4=C(CC[C@@]13C)C(=O)OC4)[C@@H]2O` [ONC0004509, triptolide] to `CC(=O)O[C@@H]1C[C@H]2C(C)(C)C(=O)C=C[C@]2(C)[C@H]2CC[C@@]3(C)[C@H](c4ccoc4)OC(=O)[C@H]4O[C@]43[C@@]21C` [ONC0004077, gedunin], the “% viability” value rises from 76.43% to 121.6%.

Compared with `NCC(CC(=O)O)c1ccc(Cl)cc1` (centres unmarked) [ONC0003898, baclofen hydrochloride], `NC[C@H](CC(=O)O)c1ccc(Cl)cc1` [ONC0004793, rbaclofen] is higher in “% viability” value: 89.35% for the first, 107.3% for the second.

Compared with `CCS(=O)(=O)N1CC(CC#N)(n2cc(-c3ncnc4[nH]ccc34)cn2)C1` [ONC0005100, baricitinib ly3009104], `Cc1[nH]cnc1CN1CCc2c(c3ccccc3n2C)C1=O` [ONC0003507, alosetronhcl] is higher in “% viability” value: 65.39% for the first, 73.4% for the second.

Compared with `CN(CCCN1c2ccccc2CCc2ccccc21)CC(=O)c1ccc(Cl)cc1` [ONC0003051, lofepramine], `O=C(O)CCc1ccc(NCc2cccc(Oc3ccccc3)c2)cc1` [ONC0002654, gw9508] is higher in “% viability” value: 107% for the first, 107.7% for the second.

Going from `CC(C)(C)c1cc(C=C(C#N)C#N)cc(Br)c1O` [ONC0004740, ag1024] to `C[C@@](Cc1ccc(O)c(O)c1)(NN)C(=O)O` [ONC0004068, carbidopa], the “% viability” value rises from 105.8% to 120.3%.

Compared with `Cc1cc2nc3c(=O)[nH]c(=O)nc-3n(C[C@H](O)[C@H](O)[C@H](O)CO)c2cc1C` [ONC0003918, riboflavin], `CC(C)NC(=O)N1CC[C@H](NC2=Nc3cc(F)ccc3N(CC(F)F)c3ccc(Cl)cc32)C1` [ONC0002259, nvspak11] is higher in “% viability” value: 77.01% for the first, 189.5% for the second.

Compared with `CC(C)c1ccccc1Cc1cc(C(=O)Nc2ccc(S(=O)(=O)c3ccccc3C(C)(C)C)cc2)c(O)c(O)c1O` [ONC0004623, tw37], `COC(=O)C1=C(C)NC(C)=C(C(=O)OC(C)(C)CN(C)CCC(c2ccccc2)c2ccccc2)C1c1cccc([N+](=O)[O-])c1` (centres unmarked) [ONC0005438, lercanidipine] is higher in “% viability” value: 77.11% for the first, 120.1% for the second.

First: O=C(Cn1c(=O)sc2ccc(Cl)cc21)N1CCN(CCO)CC1 [ONC0002129, tiaramide]
Second: CC1CCN(CC[C@H]2CCCN2S(=O)(=O)c2cccc(O)c2)CC1 [ONC0001877, sb269970]
The “% viability” value of the first is lower: 71.3% for the first, 83.54% for the second.

Going from `CC1(C)OC[C@@H](COC(=O)CCc2ccc(OC[C@@H](O)CNCCNC(=O)N3CCOCC3)cc2)O1` [ONC0003362, landiolol hcl] to `CC(=O)SC[C@@H](C)C(=O)N1CCC[C@H]1C(=O)N[C@@H](Cc1ccccc1)C(=O)O` [ONC0001975, alacepril], the “% viability” value falls from 79.88% to 73.05%.

Compared with `O=C1NC(=O)c2cc(Nc3ccccc3)c(Nc3ccccc3)cc21` [ONC0002702, cgp52411], `O=C(Nc1cccnc1)c1cc(-c2ccnc(F)c2)ccc1OCc1ccccc1` [ONC0004418, gsk2578215a] is higher in “% viability” value: 70.66% for the first, 78.41% for the second.

Compared with `Cc1cc(-c2ccc3c(c2)CC[C@H]3N2CC3(CCN(C(=O)Cc4cn5cc(C)sc5n4)CC3)C2)ncn1` [ONC0005573, pf05190457], `COc1cc2ncnc(Nc3cccc(Cl)c3F)c2cc1OC(=O)N1CCN(C)C[C@H]1C` [ONC0001063, azd3759] is lower in “% viability” value: 84.6% for the first, 65.07% for the second.

Going from `C=CC(=O)[O-].[Na+]` [ONC0002646, sodium acrylate] to `CC[C@H](C)[C@H](N)C(=O)O` [ONC0003555, isoleucine], the “% viability” value rises from 77.54% to 110.6%.

Going from `COCc1c[n+]([O-])c(C)cn1` [ONC0005343, proacipimox] to `CN(C)CCC(c1ccc(Br)cc1)c1ccccn1` (centres unmarked) [ONC0002410, brompheniramine maleate], the “% viability” value falls from 127.4% to 81.1%.

Going from `O=C1CC[C@@]2(O)[C@H]3Cc4ccc(O)c5c4[C@@]2(CCN3CC2CC2)[C@H]1O5` [ONC0003097, naltrexone hydrochloride] to `NC[C@@H]1O[C@H](C23CC4CC(CC(C4)C2)C3)Cc2c1ccc(O)c2O` [ONC0001735, a77636], the “% viability” value falls from 75.74% to 67.62%.

First: CC12CCC(=O)C=C1CCC1C2[C@@H](O)CC2(C)C1CC[C@]2(O)C(=O)COP(=O)(O)O (some centres unmarked) [ONC0000361, hydrocortisone phosphate triethylamine]
Second: C[C@]12CCC(=O)C=C1CC[C@@H]1[C@@H]2CC[C@@]2(C)[C@H]1CC[C@]2(O)C(=O)CO [ONC0002192, cortodoxone]
The “% viability” value of the first is higher: 86.07% for the first, 74.08% for the second.

First: Nc1ncnc2c1ncn2[C@@H]1O[C@H](CO)[C@@H](O)[C@@H]1O [ONC0003864, vidarabine]
Second: CC(C)Oc1ccc(-c2nn([C@@H](C)c3oc4ccc(F)cc4c(=O)c3-c3cccc(F)c3)c3ncnc(N)c23)cc1F [ONC0001037, umbralisib]
The “% viability” value of the first is lower: 78.11% for the first, 81.81% for the second.

Compared with `N=C(Nc1ccccc1)c1cccs1` [ONC0003825, lta], `Cc1ccc(S(=O)(=O)NCc2ccccc2)cc1` [ONC0000132, bts] is higher in “% viability” value: 71.6% for the first, 89.06% for the second.

Going from `Cc1cc2c(cc1C(F)(F)F)N(C(=O)Nc1ccc(Oc3cccnc3C)nc1)CC2` [ONC0001698, sb243213] to `CC(C)(O)C(=O)N1CCN(c2ccc(C(F)(F)F)c(C3=C(c4c[nH]c5ccccc45)C(=O)NC3=O)c2)CC1` [ONC0002496, tcs21311], the “% viability” value rises from 69.79% to 71.12%.

Going from `O=c1[nH]cnc2nc[nH]c12` [ONC0004702, hypoxanthine] to `CN/C(=N/CCSCc1nc[nH]c1C)NC#N` [ONC0000657, cimetidine], the “% viability” value rises from 102.1% to 137.7%.

First: CCOc1nc2cccc(C(=O)O)c2n1Cc1ccc(-c2ccccc2-c2nnn[nH]2)cc1 [ONC0004203, candesartan]
Second: COc1ccc(Cl)cc1NC(=O)Nc1cc(C)nc2ccccc12 [ONC0002997, pq401]
The “% viability” value of the first is higher: 113.6% for the first, 73.37% for the second.

Going from `c1ccc(-c2ccc(C(c3ccccc3)n3ccnc3)cc2)cc1` (centres unmarked) [ONC0003890, bifonazole] to `CCC1=C[C@@H]2CN3CCc4c([nH]c5ccccc45)[C@@](C(=O)OC)(C2)[C@@H]13` [ONC0004820, catharanthine], the “% viability” value falls from 189.2% to 91.81%.

First: Oc1c(Cl)cc(Cl)c2cccnc12 [ONC0002821, chloroxine]
Second: COc1cc2ncnc(Nc3cccc(Br)c3)c2cc1OC [ONC0002251, pd153035 hydrochloride]
The “% viability” value of the first is higher: 92.76% for the first, 84.53% for the second.

Compared with `O=C1CC[C@@H](C(=O)N2CSC[C@H]2C(=O)O)N1` [ONC0004150, pidotimod] ([pGlu]-[Thz]-OH), `CC(C)(N)CC12CC3CC(CC(C3)C1)C2` [ONC0004056, somantadine] is lower in “% viability” value: 121.4% for the first, 120.7% for the second.

Compared with `COc1cc(-c2ccc(/N=N/c3ccc4c(S(=O)(=O)O)cc(S(=O)(=O)O)c(N)c4c3O)c(OC)c2)ccc1/N=N/c1ccc2c(S(=O)(=O)O)cc(S(=O)(=O)O)c(N)c2c1O` [ONC0002750, chicagoskyblue6b], `COc1cc(Nc2c(C#N)cnc3cc(OCCCN4CCN(C)CC4)c(OC)cc23)c(Cl)cc1Cl` [ONC0000059, bosutinib] is higher in “% viability” value: 94.85% for the first, 126.5% for the second.
